Laboratory results reported in PubChem BioAssay AID248 (DTP/NCI, 2004).
The list shows only some results of the screen, not a fair sample: it gathers tests that were run many times, whatever their T/C, doses with no T/C, and many T/C values between a quarter and a half above the control. Other doses and runs of a compound stand elsewhere. T/C is the treated group as % of the vehicle group. Some entries give survivors of the animals treated and no T/C: the source files T/C as zero there, which appears to mark a toxic dose or a test without result, not a measured value. Some doses without a T/C left all or most animals alive at the check, yet need not have been tolerated: the source hardly ever lists a survival T/C far under the control, and the zero likely stands for such cases as well. Survivors were counted at the toxicity check, usually on the fifth day, unless a day is given; later deaths do not show. Schedules are NCI's codes, read here as Q, the interval in days (D) or hours (H), X, the number of doses. Some entries hold several experiments; the results are listed from low to high. Some schedules carry Z or #; the key to these is not given. For survival time, this PubChem deposit counts one and a half times the control or more as active, and values a quarter to a half above the control carry no call in these data; other NCI protocols may use other cut-offs. Some T/C values carry the count of animals alive at the toxicity check (mostly the fifth day); without a count, all were alive then.

Tested on: L1210 leukemia ip in BDF1 mice, survival T/C
Experiment: NCI In Vivo Anticancer Drug Screen. Data for tumor model L1210 Leukemia (intraperitoneal) in B6D2F1 (BDF1) mice
Details: T/C endpoint: mean survival time, higher T/C = longer survival
[1] = dose: 400.0 mg/kg/injection, schedule: Q01DX009 (ip), vehicle: carboxymethylcellulose (CMC)
[2] = dose: 25.0 mg/kg/injection, schedule: Q04DX003 (ip), vehicle: saline
[3] = dose: 50.0 mg/kg/injection, schedule: Q04DX003 (ip), vehicle: saline
[4] = dose: 100.0 mg/kg/injection, schedule: Q04DX003 (ip), vehicle: saline
[5] = dose: 200.0 mg/kg/injection, schedule: Q04DX003 (ip), vehicle: saline
[6] = dose: 400.0 mg/kg/injection, schedule: Q04DX003 (ip), vehicle: saline
[7] = dose: 400.0 mg/kg/injection, schedule: Q04DX002 (ip), vehicle: saline
[8] = dose: 200.0 mg/kg/injection, schedule: Q04DX002 (ip), vehicle: Klucel (hydroxypropylcellulose) (HPC)
[9] = dose: 400.0 mg/kg/injection, schedule: Q04DX002 (ip), vehicle: Klucel (hydroxypropylcellulose) (HPC)
[10] = dose: 400.0 mg/kg/injection, schedule: Q01DX001 (ip), vehicle: saline
[11] = dose: 400.0 mg/kg/injection, schedule: Q01DX009 (ip), vehicle: saline
[12] = dose: 200.0 mg/kg/injection, schedule: Q04DX003 (ip), vehicle: saline with Tween-80
[13] = dose: 400.0 mg/kg/injection, schedule: Q04DX003 (ip), vehicle: saline with Tween-80

O=C(O)c1cc(OCc2ccccc2)cc(OCc2ccccc2)c1
survivor count (dose: 200.0 mg/kg/injection, schedule: Q01DX009 (ip), vehicle: carboxymethylcellulose (CMC)): 3 of 3
survivor count [1]: 3 of 3

COc1ccc2c(c1)c1c(C)c3cnccc3c(C)c1n2CCCN
survivor count [2]: 6 of 6
survivor count [3]: 4 of 6
survivor count [4]: 1 of 6 and 3 of 6
survivor count [5]: 4 of 6
survivor count [6]: 0 of 6

Cc1cc(C(=O)O)cc(C)c1NC(=O)N(CCCl)N=O
T/C (dose: 8.0 mg/kg/injection, schedule: Q01DX001 (ip), vehicle: other): 141 % of control
T/C (dose: 16.0 mg/kg/injection, schedule: Q01DX001 (ip), vehicle: other): 147 % of control
T/C (dose: 23.0 mg/kg/injection, schedule: Q01DX001 (ip), vehicle: other): 147 % of control
T/C (dose: 31.0 mg/kg/injection, schedule: Q01DX001 (ip), vehicle: other): 143 % of control
survivor count (dose: 93.0 mg/kg/injection, schedule: Q01DX001 (ip), vehicle: other): 4 of 6
survivor count (dose: 125.0 mg/kg/injection, schedule: Q01DX001 (ip), vehicle: other): 5 of 6
survivor count (dose: 187.0 mg/kg/injection, schedule: Q01DX001 (ip), vehicle: other): 2 of 6
survivor count (dose: 250.0 mg/kg/injection, schedule: Q01DX001 (ip), vehicle: other): 0 of 6
survivor count (dose: 375.0 mg/kg/injection, schedule: Q01DX001 (ip), vehicle: other): 0 of 6
survivor count (dose: 500.0 mg/kg/injection, schedule: Q01DX001 (ip), vehicle: other): 0 of 6

[Br][Pb]([c]1ccccc1)([c]1ccccc1)[c]1ccccc1
survivor count (dose: 12.5 mg/kg/injection, schedule: Q04DX003 (ip), vehicle: saline): 6 of 6
survivor count [2]: 2 of 6
survivor count [3]: 0 of 6
survivor count [4]: 1 of 6
survivor count [5]: 0 of 6
survivor count [6]: 0 of 6

CC(=O)CC(=O)C(F)(F)F.CC(=O)CC(=O)C(F)(F)F.[O]=[V]
survivor count (dose: 100.0 mg/kg/injection, schedule: Q04DX003 (ip), vehicle: Klucel (hydroxypropylcellulose) (HPC)): 5 of 6
survivor count (dose: 200.0 mg/kg/injection, schedule: Q04DX003 (ip), vehicle: Klucel (hydroxypropylcellulose) (HPC)): 0 of 6
survivor count (dose: 400.0 mg/kg/injection, schedule: Q04DX003 (ip), vehicle: Klucel (hydroxypropylcellulose) (HPC)): 0 of 6

O=C(O)CN(Cc1ccccc1)Sc1ccccc1[N+](=O)[O-]
survivor count (dose: 200.0 mg/kg/injection, schedule: Q01DX009 (ip), vehicle: other): 3 of 6
survivor count (dose: 300.0 mg/kg/injection, schedule: Q01DX009 (ip), vehicle: other): 0 of 6
survivor count (dose: 400.0 mg/kg/injection, schedule: Q04DX003 (ip), vehicle: other): 1 of 6

Cc1cccc(OCCOC(=O)Nc2ccc(C)cc2[N+](=O)[O-])c1
survivor count (dose: 200.0 mg/kg/injection, schedule: Q01DX009 (ip), vehicle: saline with Tween-80): 3 of 3

CCCCCCCCCCCCC(=O)N1CCCCC1
survivor count [7]: 3 of 3

C=CCNC(=O)Nc1ncc([N+](=O)[O-])s1
survivor count (dose: 100.0 mg/kg/injection, schedule: Q01DX009 (ip), vehicle: Klucel (hydroxypropylcellulose) (HPC)): 2 of 3
survivor count (dose: 100.0 mg/kg/injection, schedule: Q04DX002 (ip), vehicle: Klucel (hydroxypropylcellulose) (HPC)): 3 of 3
survivor count [8]: 3 of 3
survivor count [9]: 3 of 3

CCN(CC)Cc1ccc([N+](=O)[O-])cc1
survivor count [7]: 0 of 3

N=C(N)N=Nc1cc(O)c(NN=C(N)N)cc1O
survivor count (dose: 30.0 mg/kg/injection, schedule: Q01DX Z (ip), vehicle: saline): 1 of 6
survivor count (dose: 60.0 mg/kg/injection, schedule: Q01DX Z (ip), vehicle: saline): 0 of 6
survivor count (dose: 60.0 mg/kg/injection, schedule: Q01DX Z (oral), vehicle: saline): 3 of 6
survivor count (dose: 120.0 mg/kg/injection, schedule: Q01DX Z (ip), vehicle: saline): 0 of 6

Cc1cc([N+](=O)[O-])ccc1O
survivor count [10]: 0 of 4

C[n+]1cccc2cccc(O)c21
survivor count [8]: 1 of 3
survivor count [9]: 1 of 3

CC[P+](CCCCCCCCC[P+](CC)(Cc1ccccc1)c1ccccc1)(Cc1ccccc1)c1ccccc1 (stereo not given)
survivor count (dose: 10.0 mg/kg/injection, schedule: Q01DX001 (ip), vehicle: saline): 1 of 6
survivor count (dose: 20.0 mg/kg/injection, schedule: Q01DX001 (ip), vehicle: saline): 0 of 6
survivor count (dose: 40.0 mg/kg/injection, schedule: Q01DX001 (ip), vehicle: saline): 0 of 6
survivor count (dose: 80.0 mg/kg/injection, schedule: Q01DX001 (ip), vehicle: saline): 0 of 6
survivor count (dose: 100.0 mg/kg/injection, schedule: Q01DX001 (ip), vehicle: saline): 0 of 6
survivor count (dose: 200.0 mg/kg/injection, schedule: Q01DX001 (ip), vehicle: saline): 0 of 6
survivor count [10]: 0 of 6

NCc1ccc(Cl)cc1Cl
survivor count [11]: 0 of 6

CCCCCCCCSC(=O)N(C(C)C)C(C)C
T/C (dose: 200.0 mg/kg/injection, schedule: Q04DX002 (ip), vehicle: saline): 141 % of control [2 of 3 alive]

CC(C)(C)NNC(C)(C)C
survivor count (dose: 75.0 mg/kg/injection, schedule: Q01DX001 (ip), vehicle: other): 2 of 6
survivor count (dose: 150.0 mg/kg/injection, schedule: Q01DX001 (ip), vehicle: other): 0 of 6
survivor count (dose: 300.0 mg/kg/injection, schedule: Q01DX001 (ip), vehicle: other): 0 of 6

CCCCCCCCCCCCCCCCc1ccc(O)cc1O
survivor count (dose: 150.0 mg/kg/injection, schedule: Q01DX009 (ip), vehicle: saline with Tween-80): 1 of 6
survivor count [12]: 2 of 6
survivor count (dose: 225.0 mg/kg/injection, schedule: Q01DX009 (ip), vehicle: saline with Tween-80): 2 of 6
survivor count (dose: 335.0 mg/kg/injection, schedule: Q01DX009 (ip), vehicle: saline with Tween-80): 1 of 6
survivor count [13]: 1 of 6

C1CCN(CCC2CCCCN2)CC1 (stereo not given)
survivor count [5]: 3 of 6
survivor count [6]: 0 of 6

CSC1=NCCS1
survivor count [1]: 0 of 6

CC(CN1c2ccccc2Sc2cccnc21)N(C)C (stereo not given)
survivor count (dose: 100.0 mg/kg/injection, schedule: Q01DX009 (ip), vehicle: saline): 0 of 6
survivor count [4]: 1 of 4
survivor count (dose: 200.0 mg/kg/injection, schedule: Q01DX009 (ip), vehicle: saline): 0 of 6
survivor count [5]: 0 of 4
survivor count [11]: 0 of 6
survivor count [6]: 0 of 4

CCC(C)C(C#N)(CCN(C)C)Cc1cccc2ccccc12 (stereo not given)
survivor count (dose: 200.0 mg/kg/injection, schedule: Q01DX009 (ip), vehicle: Klucel (hydroxypropylcellulose) (HPC)): 5 of 6
survivor count (dose: 400.0 mg/kg/injection, schedule: Q01DX009 (ip), vehicle: Klucel (hydroxypropylcellulose) (HPC)): 0 of 6

NC(Cc1ccccc1)CC1CCC1 (stereo not given)
survivor count (dose: 100.0 mg/kg/injection, schedule: Q04DX003 (ip), vehicle: saline with Tween-80): 2 of 6
survivor count [12]: 1 of 6
survivor count [13]: 0 of 6

O=C(/C=C/c1ccccc1)N1CC2CCC(CC2)C1
survivor count [13]: 2 of 6
